Data reported in US20260085315A1, “POLYNUCLEOTIDE COMPOSITIONS AND METHODS FOR TREATMENT OF CANCER” (APTAH BIO, INC., priority 2023, published 2026).
“Also recorded” adds a separate entry of the source. At least one structure is not confirmed: it was looked up by name or label, or the drawing left a doubt.

How the values were obtained:
AKT = test: ELISA of tumor tissue homogenate; assay type: in vivo, Human; conditions: in relation to the negative control
Protocol: For the assessment of biomarkers such as cAMP, AKT, GFAP, and TAU by ELISA, the U-87MG tumor tissues dissected out from the animals were homogenized according to kit instructions. The homogenates were centrifugated, and the supernatant was collected and immunoassayed with the Human AKT Protein ELISA Kit (MyByoSouce), cyclic AMP Complete Enzyme-linked Immunosorbent Assay (ELISA) kit (MyByoSouce), Human Glial Fibrillary Acidic Protein (GFAP) ELISA Kit (Cusabio), and Human TAU Protein (TAU) ELISA Kit (MyByoSouce) for the quantitative determination of cAMP, AKT, GFAP, and TAU proteins, respectively.
As shown in FIG. 37A-D, the graphs present the individual values of protein quantification of tumors from 6 animals. (A) cAMP, (B) […], (C) GFAP, and (D) TAU.

Ki67 = Ki67 immunohistochemistry of tumor samples; assay type: in vivo, athymic nude mice; conditions: treated groups vs non-treated control
Protocol: Immunohistochemistry analysis of Ki67 in tumor samples was also performed. Quantification of the Ki67 in the sections was carried out by visual estimation (Ki67+ve) using two approaches: count of Ki-67 positive tumor cells and Ki67 total area. This process was done using ImageJ public domain software. In the case of the Ki67 total area evaluation, the ImageJ threshold function was used and each image was split into its constituent red, blue and green grayscale images. Further, one of these was selected and processed for threshold values. Values were selected so that the relevant areas (Ki67+ve cells, in this case) were highlighted and the % of area occupied by the selected threshold limits measured.
As shown in FIG. 35A-B, graphs present the individual values of protein quantification of tumors from 8 animals. (A) Ki-67 area, (B) Ki-67 positive tumor cells count.

[1] = tested on: Human Glioblastoma Cancer (U-87MG) xenograft; test: Histopathology of tumor samples with scoring; assay type: in vivo, athymic nude mice
Source text: The fixed tissues were processed for routine paraffin embedding followed by sectioning (3-6 micron). The sections were stained with hematoxylin and eosin. The prepared slides were examined under microscope by the study pathologist to record histopathological findings in tumor samples, related to capsule formation, cell type, connective tissue stroma, apoptosis, necrosis, lipid content, nucleus-to-cytoplasmic (N:C) ratio, nuclei mitotic figures, tumor grade, and level of differentiation. Each histopathological finding and tumor volume were assigned a score ranging from 1 to 4 (Table 7). The sum of these scores for each sample was used to infer the tumor aggressiveness.

[2] = tested on: Human Glioblastoma Cancer (U-87MG) xenograft; test: Human glioblastoma xenograft tumor growth; assay type: in vivo, athymic nude mice
Protocol: Subcutaneous inoculation of the tumorigenic Human Glioblastoma Cancer Cell line (U-87MG) results in the formation of solid tumor in athymic nude mice. Under pathogen free conditions, the tumor retains its own characteristics and grows using the growth factors supplied by the host animal. The ability of administered ASMO1 to inhibit the growth of tumor can be a valuable tool to evaluate its efficacy as an anti-tumor agent. Measurement of tumor size at defined intervals of time generates data that can be used to calculate various end point parameters derived from tumor and understand the potency of the test compounds.
Human glioblastoma cancer cells (U-87MG) were cultured and expanded in EMEM (Eagle's Minimum Essential Medium) supplemented with 10% Fetal Bovine Serum (FBS) at 37° C. and 5% CO2. […] Before cell inoculation, cell viability was determined using trypan blue. 25 μL of cell suspension was stained with 25 μL of trypan blue and viable cells were counted using Neubauer's chamber. […]
Donor animals were monitored for solid tumor growth for at least 3-4 weeks. Tumor size was measured using digital caliper (MITUTOYO, Japan, CP-15Mx) and volume was calculated by using the formula: (L*W2)/2. […] All the animals was monitored alternate day for tumor growth/size. […]
Body weight and tumor size were measured weekly twice using digital caliper. […]

[3] = individual animals, G3 APT20TTMG, G2 TMZ

What does the source list for `Cn1nnc2c(C(N)=O)ncn2c1=O` [TMZ, Temozolomide]?
AKT expression in tumor tissue (ELISA) (AKT): reduces the expression of ART protein; Ki67 (positive tumor cell count and total area) (Ki67): did not detect any statistical differences; histopathological findings compared to G1 (vehicle control) ([1]; G3 APT20TTMG 20 mg/kg i.v., G2 TMZ 5 mg/kg p.o.): less anaplastic features (lower grade) and cellular atypia, with fewer mitotic figures; Histopathological findings: Cell Type ([1]; individual animals): Cell Type - Cellular atypia including variably shaped; also recorded: Cell Type - Variably shaped (usually spindle/oval or; also recorded: Cell Type - Tightly packed irregular/spindle type cells; Histopathological findings: Capsule ([1]; individual animals, G3 APT20TTMG 20 mg/kg i.v. q3dx7, G2 TMZ 5 mg/kg p.o. qdx21): Capsule - Present; also recorded: Capsule - Absent; Histopathological findings: Apoptosis [1, 3]: Apoptosis - Mild; also recorded: Apoptosis - Moderate; Histopathological findings: Connective tissue stroma [1, 3]: Connective tissue stroma - Moderate Fibrosis; also recorded: Connective tissue stroma - Mild Fibrosis; also recorded: Connective tissue stroma - Minimal Fibrosis; Histopathological findings: Lipid content [1, 3]: Lipid content - Moderate; also recorded: Lipid content - Mild; also recorded: Lipid content - Minimal; Histopathological findings: Mitotic figures [1, 3]: Mitotic figures - Active (large in number); also recorded: Mitotic figures - Active (Few in number); Histopathological findings: N:C ratio [1, 3]: N:C ratio - Low to High (Intermediate); Histopathological findings: Necrosis [1, 3]: Necrosis - Prominent; also recorded: Necrosis - Moderate; Histopathological findings: Nuclei [1, 3]: Nuclei - Hyperchromatic; Histopathological findings: level of differentiation [1, 3]: Moderately differentiated; tumor growth (tumor volume) vs vehicle group ([2]; APT20TTMG 20 mg/kg i.v. every third day 3 weeks, TMZ 5 mg/kg p.o. daily 3 weeks): inhibit tumor growth from day 16; final tumor weight ([2]; between APT20TTMG, TMZ and vehicle groups, after euthanasia): no statistical difference
